Consider one molecule from publication PMC7556861.

The assay addresses T1, FLAG-HA tandem tagged Miga (from pUASattB Miga-FLAG-HA) (Drosophila melanogaster) (UniProt Q9W3F7).
T1 sequence: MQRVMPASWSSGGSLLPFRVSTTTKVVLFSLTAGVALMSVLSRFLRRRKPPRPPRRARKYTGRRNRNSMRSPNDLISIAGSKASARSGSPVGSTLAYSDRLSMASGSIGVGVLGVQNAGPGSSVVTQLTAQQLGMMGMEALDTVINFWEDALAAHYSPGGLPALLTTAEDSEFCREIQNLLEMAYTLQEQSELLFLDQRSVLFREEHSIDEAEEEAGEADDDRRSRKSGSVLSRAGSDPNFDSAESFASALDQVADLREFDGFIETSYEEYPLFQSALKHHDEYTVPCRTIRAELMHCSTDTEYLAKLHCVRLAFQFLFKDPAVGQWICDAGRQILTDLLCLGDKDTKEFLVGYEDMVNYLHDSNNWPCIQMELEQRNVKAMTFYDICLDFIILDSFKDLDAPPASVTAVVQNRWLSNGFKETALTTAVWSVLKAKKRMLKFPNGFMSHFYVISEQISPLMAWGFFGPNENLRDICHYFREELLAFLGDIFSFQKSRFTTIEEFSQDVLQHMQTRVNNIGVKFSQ
The experiment in a line: affinity purification with mass spectrometry; tandem IP of FLAG-HA tagged Miga overexpressed in S2 cells for 48 hr: FLAG beads, eluted with FLAG peptide, then HA beads; SDS-PAGE, LC-MS/MS.

Results are given in words; binding and its absence hold for the method and conditions named. Binding seen in cells or lysates may run through a third protein. Here binding means that the protein was enriched with, or labelled near, the bait; the list need not be complete. Sequences can lack the tags named with a protein.

B1: Vap33 (found by mass spectrometry with tagged Miga from S2 cells) (protein, UniProt Q9W4N8 1-269)
chain: MSKSLFDLPLTIEPEHELRFVGPFTRPVVTIMTLRNNSALPLVFKIKTTAPKRYCVRPNIGKIIPFRSTQVEICLQPFVYDQQEKNKHKFMVQSVLAPMDADLSDLNKLWKDLEPEQLMDAKLKCVFEMPTAEANAENTSGGGAVGGGTGAAGGGSAGANTSSASAEALESKPKLSSEDKFKPSNLLETSESLDLLSGEIKALRECNIELRRENLHLKDQITRFRSSPAVKQVNEPYAPVLAEKQIPVFYIAVAIAAAIVSLLLGKFFL
As to B1, the binding entry is “binds”.
